No constants are given. Whether binding was seen depends on the method and setting. Binding seen in cells or lysates may run through a third protein. Some results given as binding are weak or reduced against the parent protein; the word gives no strength. Each block holds one molecule with its values, some of them ahead of it.
How the values were obtained:
[1] = target: T1, PTGES3 (human (endogenous in LNCaP)) (UniProt Q15185); assay: co-IP; LNCaP cells fractionated to isolate nuclei; IP with IgG or PTGES3 antibodies; western blot for AR
T1 sequence: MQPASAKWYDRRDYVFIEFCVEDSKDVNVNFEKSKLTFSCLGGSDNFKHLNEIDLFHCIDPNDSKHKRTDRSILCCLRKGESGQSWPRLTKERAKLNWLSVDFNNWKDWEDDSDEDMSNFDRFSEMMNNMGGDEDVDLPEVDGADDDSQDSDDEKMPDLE

The chains behind the UniProt entries cited, without tags or fusion partners.
UniProt P10275: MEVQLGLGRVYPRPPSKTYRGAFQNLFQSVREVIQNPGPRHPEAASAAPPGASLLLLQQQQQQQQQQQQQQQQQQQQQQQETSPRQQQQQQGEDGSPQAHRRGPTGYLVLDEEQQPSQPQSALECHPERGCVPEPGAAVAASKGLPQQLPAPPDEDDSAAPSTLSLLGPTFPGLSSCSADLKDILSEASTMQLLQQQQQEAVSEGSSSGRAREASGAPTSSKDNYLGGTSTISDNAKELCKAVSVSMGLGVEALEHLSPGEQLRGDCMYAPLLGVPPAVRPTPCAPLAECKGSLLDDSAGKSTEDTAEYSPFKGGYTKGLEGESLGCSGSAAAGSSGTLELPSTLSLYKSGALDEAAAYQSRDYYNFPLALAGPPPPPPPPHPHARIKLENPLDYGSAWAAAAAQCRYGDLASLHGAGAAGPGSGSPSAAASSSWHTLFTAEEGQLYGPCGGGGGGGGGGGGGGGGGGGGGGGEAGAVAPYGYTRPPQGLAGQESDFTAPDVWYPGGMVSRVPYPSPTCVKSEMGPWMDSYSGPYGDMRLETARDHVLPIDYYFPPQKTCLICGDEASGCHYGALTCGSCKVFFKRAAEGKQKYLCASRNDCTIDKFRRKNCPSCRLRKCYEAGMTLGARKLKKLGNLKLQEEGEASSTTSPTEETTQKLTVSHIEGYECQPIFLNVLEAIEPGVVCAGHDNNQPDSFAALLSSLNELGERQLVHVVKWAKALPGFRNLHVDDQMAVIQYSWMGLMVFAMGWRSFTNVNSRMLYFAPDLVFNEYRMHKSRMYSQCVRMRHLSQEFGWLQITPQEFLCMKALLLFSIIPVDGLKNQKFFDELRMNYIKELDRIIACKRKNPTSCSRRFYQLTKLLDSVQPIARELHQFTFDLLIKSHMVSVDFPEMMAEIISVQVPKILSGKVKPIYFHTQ
UniProt Q92830: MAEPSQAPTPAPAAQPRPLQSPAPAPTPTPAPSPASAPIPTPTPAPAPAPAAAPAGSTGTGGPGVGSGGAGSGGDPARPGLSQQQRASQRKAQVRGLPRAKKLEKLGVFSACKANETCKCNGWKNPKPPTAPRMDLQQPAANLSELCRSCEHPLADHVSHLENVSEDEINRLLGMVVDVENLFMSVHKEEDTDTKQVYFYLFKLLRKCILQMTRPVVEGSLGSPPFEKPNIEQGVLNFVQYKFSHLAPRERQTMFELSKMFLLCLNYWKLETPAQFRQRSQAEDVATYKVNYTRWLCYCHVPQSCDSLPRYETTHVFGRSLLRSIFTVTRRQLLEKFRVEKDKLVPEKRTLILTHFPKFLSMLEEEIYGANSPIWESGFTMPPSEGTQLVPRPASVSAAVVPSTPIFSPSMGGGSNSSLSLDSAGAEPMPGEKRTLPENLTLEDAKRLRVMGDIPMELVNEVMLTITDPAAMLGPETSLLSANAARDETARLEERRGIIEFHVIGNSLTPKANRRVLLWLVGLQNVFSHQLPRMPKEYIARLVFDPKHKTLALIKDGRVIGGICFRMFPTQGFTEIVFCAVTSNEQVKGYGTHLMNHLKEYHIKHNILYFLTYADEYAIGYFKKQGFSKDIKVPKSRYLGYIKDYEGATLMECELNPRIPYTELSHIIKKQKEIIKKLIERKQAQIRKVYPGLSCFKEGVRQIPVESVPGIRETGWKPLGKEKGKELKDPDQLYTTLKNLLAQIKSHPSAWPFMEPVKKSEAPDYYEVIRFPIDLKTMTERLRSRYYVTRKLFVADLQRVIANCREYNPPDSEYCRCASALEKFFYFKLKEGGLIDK

[2] = target: T1, PTGES3 (human (endogenous in LNCaP)); assay: proximity ligation; Duolink in situ kit mouse/rabbit; LNCaP cells fixed with 4% PFA and permeabilized with 0.2% Triton X-100
[3] = target: T1, PTGES3 (human (endogenous in LNCaP)); assay: co-IP; LNCaP cell lysate; IP with IgG or PTGES3 antibody; western blots for KAT2A, P300, FOXA1
[4] = target: HA-tagged full-length AR (UniProt P10275); assay: co-IP; LNCaP cells transfected with HA-tagged AR constructs; IP with HA antibody; western blot for PTGES3

binding [1]: binds | binding [2]: binds
Molecule: androgen receptor (from UniProt P10275 1-920)

binding [3]: binds
Molecule: histone acetyltransferase KAT2A (from UniProt Q92830 1-837) (enzyme)

binding [4]: binds
B1: PTGES3 (protein, UniProt Q15185 1-160)
chain: MQPASAKWYDRRDYVFIEFCVEDSKDVNVNFEKSKLTFSCLGGSDNFKHLNEIDLFHCIDPNDSKHKRTDRSILCCLRKGESGQSWPRLTKERAKLNWLSVDFNNWKDWEDDSDEDMSNFDRFSEMMNNMGGDEDVDLPEVDGADDDSQDSDDEKMPDLE
